Assay [1] deals with MyoVa-GTD-S1651E/S1652E (globular tail domain of myosin Va, phosphomimetic) (human) (UniProt Q9Y4I1). The experiment in a line: two-hybrid; pairwise validation; Y2H Gold cells co-transformed with pGBKT7 and pGADT7 vectors, 30°C, 4 days on QDO/X/A agar (four reporter genes); empty pGBKT7 as negative control.
Assay [2] shares this target. The experiment in a line: two-hybrid; Matchmaker Gold screen; bait pGBKT7-EE in S. cerevisiae Y2H Gold against a universal human-normalized cDNA library (pGADT7 preys); clones positive for HIS3, ADE2, AUR1-C and MEL1.

The chains behind the UniProt entries cited, without tags or fusion partners. Where a name states a change or a piece, a line headed by the entry shows the natural chain unless it says otherwise. A line that says so, or that is headed by a name, gives the form on record, which may keep a tag or linker. Residues count along the entry.
MyoVa-GTD-S1651E/S1652E (globular tail domain of myosin Va, phosphomimetic) (Q9Y4I1, form named): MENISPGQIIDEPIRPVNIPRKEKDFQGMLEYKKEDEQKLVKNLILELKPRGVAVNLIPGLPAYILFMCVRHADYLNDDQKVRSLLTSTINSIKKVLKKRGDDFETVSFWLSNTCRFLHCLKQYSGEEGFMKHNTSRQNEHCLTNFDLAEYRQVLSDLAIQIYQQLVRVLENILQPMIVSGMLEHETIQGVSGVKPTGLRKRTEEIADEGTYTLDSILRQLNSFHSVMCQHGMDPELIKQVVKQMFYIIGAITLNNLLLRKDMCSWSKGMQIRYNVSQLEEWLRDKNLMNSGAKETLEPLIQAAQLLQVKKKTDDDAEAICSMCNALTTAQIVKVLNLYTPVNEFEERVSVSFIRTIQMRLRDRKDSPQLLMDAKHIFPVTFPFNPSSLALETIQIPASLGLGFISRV
UniProt Q8TAF3, residues 451-677: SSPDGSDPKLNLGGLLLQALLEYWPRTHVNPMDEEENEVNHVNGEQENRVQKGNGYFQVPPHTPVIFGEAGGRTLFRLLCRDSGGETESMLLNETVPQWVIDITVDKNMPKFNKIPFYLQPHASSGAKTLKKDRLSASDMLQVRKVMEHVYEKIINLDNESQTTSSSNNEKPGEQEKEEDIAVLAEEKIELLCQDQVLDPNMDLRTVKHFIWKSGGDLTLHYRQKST

This is an account of results in article PMC6395372.

Results are given in words; binding and its absence hold for the method and conditions named. Some results given as binding are weak or reduced against the parent protein; the word gives no strength.

With “WDR48 451-677, DUF3337 domain of WD repeat-containing protein 48 (two-hybrid prey, clone 30) (from UniProt Q8TAF3-1 451-677) (domain or fragment)”, the binding entry in assay [1] and in assay [2] was “binds” throughout.
